At least one compound was matched to its structure with a doubt left.
Test system: SAH rats
Test: Long-term survival rate of SAH rats
Format: in vivo, rat
Details: groups M, O and N
Method: The experimental materials, grouping and modeling methods were the same as those in effect embodiment 1. The rats were immediately administrated 2 hours after SAH modeling according to the grouping administration protocol and continued to be administrated once a day for 14 days thereafter, and the survival of the rats was observed and recorded for 14 days. The mortality rate within 24 hours in group S was as high as 53.8%.

COCCOC(=O)C1=C(C)NC(C)=C(C(=O)OC(C)C)C1c1cccc([N+](=O)[O-])c1 (centres unmarked) [nimodipine, reference compound]
survival time (vs group S) (14 days, H): prolonged
mortality rate within 24 hours (vs group S): significantly reduced

Source: patent US12636260B2, “Application of α-asarone in preparation of medicine for preventing or treating hemorrhagic stroke” (CHENGDU XINRUI TAIKANG TECHNOLOGY CO., LTD., priority 2021, dated 2026)
